Measured values taken from PubChem BioAssay AID743255 (National Center for Advancing Translational Sciences (NCATS), 2014).
Hit rate of the full screen: of about 390,000 compounds, about 910 (0.23%) were called active. The shares of active, inactive and inconclusive entries below differ from those in the screen. The call rests on the fitted dose curve; in most records, active means well fitted inhibition curve with a large enough effect; inconclusive means small, poorly fitted or top-dose-only effect; inactive means no such curve, though single readings can be large or run the other way. A potency beside an inconclusive call is a rough fit, not a confirmed value.

Amino acid sequences for entries named in this document (tags omitted). A change or cut given only in a name is not applied to a line headed by its entry.
UniProt O94782: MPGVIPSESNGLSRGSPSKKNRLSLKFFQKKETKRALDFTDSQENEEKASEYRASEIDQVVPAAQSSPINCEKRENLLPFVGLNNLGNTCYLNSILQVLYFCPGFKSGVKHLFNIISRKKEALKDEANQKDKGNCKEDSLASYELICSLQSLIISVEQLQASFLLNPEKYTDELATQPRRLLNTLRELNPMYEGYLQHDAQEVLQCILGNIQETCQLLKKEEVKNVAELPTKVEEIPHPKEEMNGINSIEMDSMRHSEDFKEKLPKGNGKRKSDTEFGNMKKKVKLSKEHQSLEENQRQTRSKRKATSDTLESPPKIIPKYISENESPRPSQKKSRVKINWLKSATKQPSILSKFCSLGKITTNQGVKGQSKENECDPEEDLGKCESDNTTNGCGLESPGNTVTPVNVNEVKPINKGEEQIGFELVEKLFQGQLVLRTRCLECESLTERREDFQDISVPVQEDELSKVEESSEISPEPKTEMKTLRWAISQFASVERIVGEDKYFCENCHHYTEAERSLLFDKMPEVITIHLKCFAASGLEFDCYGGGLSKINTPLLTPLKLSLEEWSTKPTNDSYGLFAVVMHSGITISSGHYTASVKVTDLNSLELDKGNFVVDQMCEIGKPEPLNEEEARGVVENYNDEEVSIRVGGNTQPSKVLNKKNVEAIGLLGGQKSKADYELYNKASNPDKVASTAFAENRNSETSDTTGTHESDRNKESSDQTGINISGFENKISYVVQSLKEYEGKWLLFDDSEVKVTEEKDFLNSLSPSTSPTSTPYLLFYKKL

Target: Ubiquitin carboxyl-terminal hydrolase 1 (Homo sapiens) (UniProt O94782)
Test: Inhibitors of USP1/UAF1: Primary Screen; further: nearly all actives have a fitted effect of over 60% in size
Conditions: recombinant USP1/UAF1, Ub-Rhodamine cleavage fluorescence; activity change, negative = inhibition: at 57.1 µM (top of the series)
Procedure, shortened: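 1 nM enzyme complex + cpd, 15 min RT; start with Ub-Rho 150nM final; kinetic fluorescence ex 480/em 540, 6 reads q60 s. Buffer 50mM HEPES pH 7.8, 0.5mM EDTA, 0.1 mg/ml BSA, 1mM TCEP, 0.01% Tween-20.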
On the % scale 0 is the no-effect control and ±100 the full control effect; potency means the concentration at half of the fitted maximal effect.

Potency, inconclusive:
COC(=O)c1ccsc1NC(=O)c1ccc2c(c1)OCCO2 31.6 µM [inhibitor, partial curve]
COc1ccc(C)cc1NC(=O)Nc1cccc(-c2noc(C)n2)c1 31.6 µM [inhibitor, partial curve, poor fit]
COc1cc(C)c(CN2CCN(C(=O)CCC(=O)c3ccc(C)s3)CC2)cc1OC 0.282 µM [inhibitor, full curve, poor fit]
Cc1cc(NC(=O)CN2CCC(C)CC2)nc2c1c(=O)oc1ccccc12 4.47 µM [inhibitor, partial curve]
C[C@@H](CO)NC(=O)c1nc[nH]c1C(=O)N[C@H](C)c1ccccc1 8.91 µM [inhibitor, full curve, poor fit]
COc1cc(/C=N/NC(=O)C(=O)/C=C2\NC3(CCCC3)Cc3ccccc32)ccc1O 39.8 µM [inhibitor, partial curve]
O=C(Cn1cnc2ccccc2c1=O)NCCC(=O)Nc1ccc(F)cc1 10 µM [inhibitor, full curve, poor fit]
C(=N\Nc1ccc(-n2ccnc2)nn1)/c1ccccc1 50.1 µM [inhibitor, partial curve, poor fit]
COc1ccc(OCc2cc(C(=O)NCCN3CCCc4ccccc43)no2)c(Cl)c1 31.6 µM [inhibitor, partial curve]
O=C(c1cccc(Cl)c1)N1CCC(N2CCC(C(=O)N3CCCC3)CC2)CC1 3.16 µM [inhibitor, full curve]
CC(=O)c1ccc(-n2nnnc2SCC(=O)NC2CCCCC2)cc1 35.5 µM [inhibitor, partial curve]
COc1ccc(OC)c(/C=C2\N=C(c3ccccc3)OC2=O)c1 7.94 µM [inhibitor, partial curve]
C/C(CC(C)(C)C1CCCCC1)=N\NC(N)=S 4.47 µM [inhibitor, partial curve]
Cc1ccc(-c2ccccc2NC(=O)CS(=O)CC(=O)Nc2ccc(C)c(Cl)c2)o1 (stereo not drawn) 35.5 µM [inhibitor, partial curve, poor fit]
COc1cc(NC(=O)C(Cc2ccccc2)NS(=O)(=O)c2cccs2)cc(OC)c1 (stereo not drawn) 5.62 µM [inhibitor, single point]
S=C(NCc1ccccc1)N1CCN(c2cccc(Cl)c2)CC1 7.94 µM [inhibitor, partial curve, poor fit]
Cc1c(NC(=O)C(C)(C)Oc2ccc(Cl)cc2)cccc1-c1nc2ccccc2o1 5.62 µM [inhibitor, partial curve]
Cc1cc(NCCCCCCCNc2cc(C)nc3cc([N+](=O)[O-])ccc23)c2ccc([N+](=O)[O-])cc2n1 35.5 µM [inhibitor, partial curve]
COc1ccc(-c2nc3ccccn3c2CN2CCN(c3ccccc3F)CC2)cc1 44.7 µM [inhibitor, partial curve, poor fit]
COC(=O)c1ccccc1NC(=O)c1nc(-c2ccc(Cl)cc2)n2c1CCCCC2 14.1 µM [inhibitor, partial curve]
COC(=O)c1ccc(NC(=O)CSc2nnc3c4ccccc4n(C(C)C)c3n2)cc1 5.62 µM [inhibitor, full curve, poor fit]
CCOCCCNC(=O)Cc1ccc(OC)c(OC)c1 50.1 µM [inhibitor, partial curve, poor fit]
COc1ccccc1CNC(=O)CSc1ccc(-c2sc(-c3ccccc3)nc2C)nn1 0.708 µM [inhibitor, full curve]
Cc1ccc(C(=O)Cn2c(=N)n(CCN3CCOCC3)c3ccccc32)cc1 63.1 µM [inhibitor, partial curve, poor fit]
CCCCC(=O)NNC(=O)N1c2ccccc2Sc2ccccc21 0.251 µM [inhibitor, full curve, poor fit]
CC(=O)Nc1ccc2nc3c(=O)n(C)c(=O)n(C)c3nc2c1C 15.8 µM [inhibitor, partial curve]
[N-]=[N+]=NC[C@H](Cc1ccccc1)N1CCN(Cc2ccccc2)CCC1=O 0.447 µM [inhibitor, partial curve, poor fit]
CCOC(=O)c1ccc(NC(=O)CCS(=O)(=O)c2cccc3nonc23)cc1 3.98 µM [inhibitor, partial curve]
CCOc1c(Br)cc(C2CC(=O)Nc3cc4c(cc32)OCO4)cc1OC (stereo not drawn) 56.2 µM [inhibitor, partial curve, poor fit]
COc1ccc(-c2nc3cc(C)ccn3c2NC2CCCCC2)cc1SC1CCCCC1 25.1 µM [inhibitor, partial curve]
O=C(CCN1C(=O)/C(=C\c2cccs2)SC1=S)Nc1ccccn1 35.5 µM [inhibitor, single point]
O=C(CC(c1ccccc1)(c1ccccc1)c1ccccc1)N[C@@H](Cc1ccc(O)cc1)C(=O)O 7.08 µM [inhibitor, partial curve]
CCCN1CCc2c(sc(NC(=O)c3ccc(S(=O)(=O)N(C)c4ccccc4)cc3)c2C(N)=O)C1 15.8 µM [inhibitor, partial curve]
CC[C@@H]1C=C(C(=O)O)[C@H](c2ccc(Br)cc2)N1S(=O)(=O)c1ccc(C)cc1 39.8 µM [inhibitor, partial curve, poor fit]
Cc1ccc(NC(=O)c2cccc(F)c2)cc1S(=O)(=O)N1CCCCCC1 7.08 µM [inhibitor, partial curve]
COCCN(Cc1ccco1)C(=O)c1cc2c(=O)[nH]c3ccc(C)cc3c2s1 5.01 µM [inhibitor, partial curve]
Cc1ccc(C)c(NC(=O)c2nnn(Cc3ccccc3)c2N)c1 22.4 µM [inhibitor, partial curve]
COc1ccc(C(=O)N2N=C(c3cccc(NS(C)(=O)=O)c3)CC2c2cccs2)cc1 (stereo not drawn) 31.6 µM [inhibitor, partial curve]

Potency, inactive:
O=c1c2cn[nH]c2nc(SCc2c(F)cccc2F)n1-c1ccc(Cl)cc1

Potency, active:
CN1\C(=C/C=C/C=C/C=[N+](C)C)C(C)(C)c2ccccc21 25.1 µM

Activity change, negative = inhibition, inactive:
C[C@@H](C(=O)N[C@@H](Cc1c[nH]c2ccccc12)C(=O)O)n1nnc2ccccc2c1=O -20.5%
C[C@H](CO)N1C[C@H](C)[C@@H](CN(C)S(=O)(=O)c2ccc(C#N)cc2)OCc2cnnn2CCCC1=O -9.23%
Cc1ccc2cc(CCNS(=O)(=O)c3ccc(Cl)cc3)c(=O)[nH]c2c1C -12%
COc1cc(CN2CCC(n3nccc3NC(=O)c3ccccc3OC)CC2)ccc1F -6.91%
CCOc1cccc(C(=O)Nc2nc3c(s2)CC(C(C)(C)C)CC3)c1 (stereo not drawn) -0.877%
COc1ccc2c(c1)c(=O)oc1c(C)c(OC(C)C(=O)NCC3CCC(C(=O)O)CC3)ccc12 (stereo not drawn) -24.4%
N#Cc1cc2c(nc1SCc1cccnc1)CCC2 -5.24%
CCOc1ccc(-n2c(CCc3ccccc3)n[nH]c2=S)cc1 -25.4%
CCCCS(=O)(=O)c1oc(-c2ccc(F)cc2)nc1S(=O)(=O)c1ccc(C)cc1 -15.8%
Cc1sc(-c2cc3c([nH]c2=O)CC(c2ccccc2)CC3=O)nc1-c1ccc(Cl)cc1 (stereo not drawn) -6.04%
COc1cc(OC)cc(-c2nc3n(n2)C(c2ccccc2)C(C(N)=O)=C(C)N3)c1 (stereo not drawn) 3.51%
O=[N+]([O-])c1ccc(-c2csc(Nc3ccccc3)[n+]2Cc2ccccc2)cc1 -17.6%
Cc1ccc(C)c(CSc2nnc(C)n3c2cc2sccc23)c1 2.56%
Cc1ccc(NC(=O)C(OC(=O)c2ccc(O)cc2)c2ccccc2)cc1Cl (stereo not drawn) -22.6%
Nc1ccc(NC(=O)NC2CCCCC2)cc1 -10.7%
O=C(CCS(=O)(=O)c1ccccc1)N(Cc1cccnc1)c1nc2ccc(F)cc2s1 -25.5%
Cc1ccc(C)c(N2CCN(CCCNC(=O)c3cnn(-c4ccc(F)cc4)c3C3CCN(C(=O)OC(C)(C)C)CC3)CC2)c1 -15%
O=C1OCC(CO)(CO)N=C1NNc1ccccc1[N+](=O)[O-] -22.2%
Cc1ccc(-n2c(=O)c3c(c4cc(C)ccc4n3C)n(CC(=O)c3ccc(Cl)cc3)c2=O)cc1 -17.3%
O=C(C1=C[C@H](c2ccc3c(c2)OCO3)C[C@H](OCc2ccc(CO)cc2)O1)N1CCN(Cc2ccc3c(c2)OCO3)CC1 -22.1%
CC(C)COc1ccc(C(=O)OCCN2CCCCC2)cc1 -4.57%
O=C1CCSC2(C(=O)N(Cc3ccc(F)cc3)c3ccccc32)N1c1ccc(Cl)cc1 (stereo not drawn) -18.4%
CC(C)Cn1c(N)c(C(=O)COC(=O)c2nccnc2N)c(=O)n(C)c1=O -6.11%
O=C(Nc1ccc(F)cc1)Nc1ccccc1NS(=O)(=O)c1cccs1 -11.7%
COc1ccc(NS(=O)(=O)c2ccc(NC(=S)NC(=O)c3ccc(Br)cc3)cc2)nn1 -14.1%
CCC(C)C(=O)Nc1nc(C)c(-c2csc(Nc3ccc(Cl)cc3)n2)s1 (stereo not drawn) -22.2%

Already shown: entries from further up.
Activity change, negative = inhibition, inactive:
C[C@@H](C(=O)N[C@@H](Cc1c[nH]c2ccccc12)C(=O)O)n1nnc2ccccc2c1=O -20.5%
C[C@H](CO)N1C[C@H](C)[C@@H](CN(C)S(=O)(=O)c2ccc(C#N)cc2)OCc2cnnn2CCCC1=O -9.23%
Cc1ccc2cc(CCNS(=O)(=O)c3ccc(Cl)cc3)c(=O)[nH]c2c1C -12%
COc1cc(CN2CCC(n3nccc3NC(=O)c3ccccc3OC)CC2)ccc1F -6.91%
CCOc1cccc(C(=O)Nc2nc3c(s2)CC(C(C)(C)C)CC3)c1 (stereo not drawn) -0.877%
COc1ccc2c(c1)c(=O)oc1c(C)c(OC(C)C(=O)NCC3CCC(C(=O)O)CC3)ccc12 (stereo not drawn) -24.4%
N#Cc1cc2c(nc1SCc1cccnc1)CCC2 -5.24%
CCOc1ccc(-n2c(CCc3ccccc3)n[nH]c2=S)cc1 -25.4%
CCCCS(=O)(=O)c1oc(-c2ccc(F)cc2)nc1S(=O)(=O)c1ccc(C)cc1 -15.8%
Cc1sc(-c2cc3c([nH]c2=O)CC(c2ccccc2)CC3=O)nc1-c1ccc(Cl)cc1 (stereo not drawn) -6.04%
COc1cc(OC)cc(-c2nc3n(n2)C(c2ccccc2)C(C(N)=O)=C(C)N3)c1 (stereo not drawn) 3.51%
O=[N+]([O-])c1ccc(-c2csc(Nc3ccccc3)[n+]2Cc2ccccc2)cc1 -17.6%
Cc1ccc(C)c(CSc2nnc(C)n3c2cc2sccc23)c1 2.56%

Three structures already listed, sorted by number of heavy atoms, smallest number first.
Activity change, negative = inhibition, inactive:
Nc1ccc(NC(=O)NC2CCCCC2)cc1 -10.7%
O=[N+]([O-])c1ccc(-c2csc(Nc3ccccc3)[n+]2Cc2ccccc2)cc1 -17.6%
O=C(CCS(=O)(=O)c1ccccc1)N(Cc1cccnc1)c1nc2ccc(F)cc2s1 -25.5%

Following part:

Activity change, negative = inhibition, inconclusive:
O=c1c2cc(N3CCOCC3)ccc2[nH]c(=S)n1Cc1cccc(Cl)c1 -28% [inhibitor]
CCc1cccc2c(C#N)cn(CCOc3ccccc3OC)c12 -30.3% [inhibitor]
